# Earlier results as cited in patent US20120142770A1, “PHARMACEUTICAL COMPOSITIONS OF HDAC INHIBITORS AND CHELATABLE METAL COMPOUNDS, AND METAL-HDAC INHIBITOR CHELATE COMPLEXES” (Merck Sharp & Dohme Corp, priority 2006, published 2012).
# System: carcinogen-induced (N-methylnitrosourea) mammary tumors
# Conditions: rats, administered in diet over 130 days; cited from earlier work
compound,measurement,value
"O=C(CCCCCCC(=O)Nc1ccccc1)NO [Suberoylanilide hydroxamic acid (SAHA), N-hydroxy-N′-phenyloctanediamide]",inhibition of tumor development and growth,effective at inhibiting the development and continued growth of carcinogen-induced (N-methylnitrosourea) mammary tumors
